# Source: the supplement of paper PMC10849652
# The chains behind the UniProt entries cited, without tags or fusion partners. Where a name states a change or a piece, a line headed by the entry shows the natural chain unless it says otherwise.
# UniProt Q9Y4F3: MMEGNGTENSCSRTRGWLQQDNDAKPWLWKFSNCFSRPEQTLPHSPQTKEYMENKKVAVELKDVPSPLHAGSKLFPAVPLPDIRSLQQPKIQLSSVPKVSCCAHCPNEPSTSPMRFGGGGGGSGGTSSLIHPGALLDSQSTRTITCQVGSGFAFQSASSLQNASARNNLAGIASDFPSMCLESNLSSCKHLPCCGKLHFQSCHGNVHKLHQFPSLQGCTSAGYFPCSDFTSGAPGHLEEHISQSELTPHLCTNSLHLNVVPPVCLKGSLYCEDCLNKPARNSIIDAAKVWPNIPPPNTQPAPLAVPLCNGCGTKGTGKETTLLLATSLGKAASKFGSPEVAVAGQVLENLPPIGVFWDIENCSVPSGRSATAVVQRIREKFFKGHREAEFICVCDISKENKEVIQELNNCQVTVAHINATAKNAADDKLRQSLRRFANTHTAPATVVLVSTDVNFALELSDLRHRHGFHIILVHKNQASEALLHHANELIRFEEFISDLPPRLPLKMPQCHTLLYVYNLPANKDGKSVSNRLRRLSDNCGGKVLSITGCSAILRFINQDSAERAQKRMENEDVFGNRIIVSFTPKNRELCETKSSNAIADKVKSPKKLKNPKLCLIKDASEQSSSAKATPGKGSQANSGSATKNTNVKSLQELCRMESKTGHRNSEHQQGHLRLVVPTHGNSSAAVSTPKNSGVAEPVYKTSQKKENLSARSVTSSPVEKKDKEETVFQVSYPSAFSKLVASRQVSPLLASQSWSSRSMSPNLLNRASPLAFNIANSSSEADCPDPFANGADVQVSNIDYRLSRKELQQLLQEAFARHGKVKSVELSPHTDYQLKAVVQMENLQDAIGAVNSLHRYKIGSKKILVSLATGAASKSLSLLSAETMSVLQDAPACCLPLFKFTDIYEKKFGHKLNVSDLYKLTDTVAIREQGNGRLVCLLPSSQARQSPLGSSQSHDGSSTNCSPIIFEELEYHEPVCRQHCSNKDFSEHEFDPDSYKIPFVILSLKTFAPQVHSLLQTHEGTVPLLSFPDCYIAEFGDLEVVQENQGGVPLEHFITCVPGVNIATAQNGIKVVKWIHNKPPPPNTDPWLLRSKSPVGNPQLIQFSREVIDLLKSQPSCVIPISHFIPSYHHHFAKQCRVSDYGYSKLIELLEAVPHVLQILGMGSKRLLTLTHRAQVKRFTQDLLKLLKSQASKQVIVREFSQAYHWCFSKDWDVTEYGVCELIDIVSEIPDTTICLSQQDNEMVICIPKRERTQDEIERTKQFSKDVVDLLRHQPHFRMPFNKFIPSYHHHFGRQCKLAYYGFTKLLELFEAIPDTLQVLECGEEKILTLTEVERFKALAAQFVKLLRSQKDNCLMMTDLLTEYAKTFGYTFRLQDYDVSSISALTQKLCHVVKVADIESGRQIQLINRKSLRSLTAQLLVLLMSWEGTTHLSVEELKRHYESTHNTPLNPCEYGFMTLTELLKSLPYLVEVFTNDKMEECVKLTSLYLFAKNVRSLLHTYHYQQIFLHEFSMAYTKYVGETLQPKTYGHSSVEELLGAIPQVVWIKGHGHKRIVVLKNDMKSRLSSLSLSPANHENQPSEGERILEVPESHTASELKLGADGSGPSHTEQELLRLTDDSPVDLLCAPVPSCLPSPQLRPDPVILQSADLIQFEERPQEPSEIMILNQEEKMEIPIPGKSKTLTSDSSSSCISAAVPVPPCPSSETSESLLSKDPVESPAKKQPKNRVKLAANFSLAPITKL
# UniProt Q9H0U3: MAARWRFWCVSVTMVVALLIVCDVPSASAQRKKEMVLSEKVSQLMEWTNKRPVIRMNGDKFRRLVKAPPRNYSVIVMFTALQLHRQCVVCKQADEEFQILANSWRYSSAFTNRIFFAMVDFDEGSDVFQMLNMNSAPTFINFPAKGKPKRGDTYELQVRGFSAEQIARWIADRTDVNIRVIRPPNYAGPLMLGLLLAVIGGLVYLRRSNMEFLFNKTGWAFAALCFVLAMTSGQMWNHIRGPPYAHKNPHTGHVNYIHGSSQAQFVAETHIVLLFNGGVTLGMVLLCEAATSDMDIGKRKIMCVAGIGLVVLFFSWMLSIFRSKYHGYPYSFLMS
# UniProt Q16706: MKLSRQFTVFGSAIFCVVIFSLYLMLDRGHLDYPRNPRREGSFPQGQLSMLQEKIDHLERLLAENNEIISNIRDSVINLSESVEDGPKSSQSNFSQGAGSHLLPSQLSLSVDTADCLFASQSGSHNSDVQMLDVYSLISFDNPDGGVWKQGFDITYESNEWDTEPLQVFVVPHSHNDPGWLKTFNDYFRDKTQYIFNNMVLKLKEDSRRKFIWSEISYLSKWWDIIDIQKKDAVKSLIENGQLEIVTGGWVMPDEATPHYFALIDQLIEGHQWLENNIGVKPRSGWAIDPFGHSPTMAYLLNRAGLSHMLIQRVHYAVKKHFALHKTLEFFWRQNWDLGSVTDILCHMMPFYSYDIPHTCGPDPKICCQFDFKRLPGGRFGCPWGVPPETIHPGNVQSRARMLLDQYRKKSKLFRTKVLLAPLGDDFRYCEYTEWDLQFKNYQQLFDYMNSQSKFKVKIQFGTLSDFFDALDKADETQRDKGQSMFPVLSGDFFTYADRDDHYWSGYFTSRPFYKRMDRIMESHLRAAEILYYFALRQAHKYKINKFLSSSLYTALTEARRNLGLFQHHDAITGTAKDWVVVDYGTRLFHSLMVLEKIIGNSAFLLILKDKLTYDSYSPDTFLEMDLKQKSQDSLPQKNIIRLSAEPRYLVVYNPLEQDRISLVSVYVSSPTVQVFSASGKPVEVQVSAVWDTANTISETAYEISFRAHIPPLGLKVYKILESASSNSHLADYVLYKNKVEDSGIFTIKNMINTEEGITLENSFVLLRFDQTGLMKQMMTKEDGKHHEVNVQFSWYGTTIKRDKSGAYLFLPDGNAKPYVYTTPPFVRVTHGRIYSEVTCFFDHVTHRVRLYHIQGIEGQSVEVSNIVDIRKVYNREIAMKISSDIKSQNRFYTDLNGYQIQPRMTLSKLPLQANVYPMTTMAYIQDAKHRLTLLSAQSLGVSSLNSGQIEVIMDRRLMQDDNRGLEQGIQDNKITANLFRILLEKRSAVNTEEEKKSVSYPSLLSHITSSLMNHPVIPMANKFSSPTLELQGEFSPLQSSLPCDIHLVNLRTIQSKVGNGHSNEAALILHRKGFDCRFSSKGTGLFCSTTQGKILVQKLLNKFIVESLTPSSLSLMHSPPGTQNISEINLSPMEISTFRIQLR
# UniProt Q6P0Q8: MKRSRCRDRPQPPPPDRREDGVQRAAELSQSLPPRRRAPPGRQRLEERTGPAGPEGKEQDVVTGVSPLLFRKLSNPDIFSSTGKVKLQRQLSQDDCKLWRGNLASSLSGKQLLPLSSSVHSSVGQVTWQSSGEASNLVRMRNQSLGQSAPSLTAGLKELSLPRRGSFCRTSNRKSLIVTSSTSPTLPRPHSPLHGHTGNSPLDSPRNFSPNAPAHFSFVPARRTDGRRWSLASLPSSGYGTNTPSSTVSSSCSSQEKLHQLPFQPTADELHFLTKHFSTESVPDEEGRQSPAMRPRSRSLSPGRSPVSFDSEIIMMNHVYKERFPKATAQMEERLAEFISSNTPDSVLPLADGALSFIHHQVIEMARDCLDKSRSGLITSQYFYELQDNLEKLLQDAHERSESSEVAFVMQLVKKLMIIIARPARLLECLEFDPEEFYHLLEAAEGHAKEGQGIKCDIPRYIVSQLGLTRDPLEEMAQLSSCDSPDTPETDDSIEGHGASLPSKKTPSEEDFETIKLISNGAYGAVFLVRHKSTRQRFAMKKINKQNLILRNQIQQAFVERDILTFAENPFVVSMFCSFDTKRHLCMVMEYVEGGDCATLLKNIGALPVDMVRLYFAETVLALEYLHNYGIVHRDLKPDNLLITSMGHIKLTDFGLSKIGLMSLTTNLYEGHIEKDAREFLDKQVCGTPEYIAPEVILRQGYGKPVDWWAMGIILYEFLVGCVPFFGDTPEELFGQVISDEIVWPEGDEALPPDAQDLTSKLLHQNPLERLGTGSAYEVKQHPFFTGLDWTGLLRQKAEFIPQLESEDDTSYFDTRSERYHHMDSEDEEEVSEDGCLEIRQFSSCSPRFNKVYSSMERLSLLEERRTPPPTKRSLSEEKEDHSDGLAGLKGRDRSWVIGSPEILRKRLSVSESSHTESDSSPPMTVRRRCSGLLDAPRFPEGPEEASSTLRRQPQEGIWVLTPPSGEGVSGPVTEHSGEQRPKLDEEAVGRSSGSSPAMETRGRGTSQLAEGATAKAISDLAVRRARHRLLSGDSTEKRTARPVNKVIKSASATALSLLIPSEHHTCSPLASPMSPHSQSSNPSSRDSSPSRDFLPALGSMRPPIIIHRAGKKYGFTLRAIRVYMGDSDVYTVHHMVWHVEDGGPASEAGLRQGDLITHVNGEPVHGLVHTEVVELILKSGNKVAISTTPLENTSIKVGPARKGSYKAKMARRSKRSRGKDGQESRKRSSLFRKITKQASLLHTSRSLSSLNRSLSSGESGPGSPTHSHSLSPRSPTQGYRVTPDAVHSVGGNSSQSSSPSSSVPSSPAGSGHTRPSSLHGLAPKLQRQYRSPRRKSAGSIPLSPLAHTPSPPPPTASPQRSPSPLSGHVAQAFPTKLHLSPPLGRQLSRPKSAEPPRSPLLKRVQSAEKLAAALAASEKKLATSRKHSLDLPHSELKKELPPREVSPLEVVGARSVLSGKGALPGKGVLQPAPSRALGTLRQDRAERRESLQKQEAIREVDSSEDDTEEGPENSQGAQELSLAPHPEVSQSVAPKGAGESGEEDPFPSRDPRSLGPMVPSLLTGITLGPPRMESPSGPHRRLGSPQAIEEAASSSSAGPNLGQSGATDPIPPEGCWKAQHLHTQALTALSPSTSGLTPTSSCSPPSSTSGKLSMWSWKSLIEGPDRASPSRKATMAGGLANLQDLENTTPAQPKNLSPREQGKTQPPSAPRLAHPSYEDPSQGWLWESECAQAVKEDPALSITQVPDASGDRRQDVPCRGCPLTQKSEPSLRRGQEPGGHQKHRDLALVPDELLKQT
# UniProt P43358: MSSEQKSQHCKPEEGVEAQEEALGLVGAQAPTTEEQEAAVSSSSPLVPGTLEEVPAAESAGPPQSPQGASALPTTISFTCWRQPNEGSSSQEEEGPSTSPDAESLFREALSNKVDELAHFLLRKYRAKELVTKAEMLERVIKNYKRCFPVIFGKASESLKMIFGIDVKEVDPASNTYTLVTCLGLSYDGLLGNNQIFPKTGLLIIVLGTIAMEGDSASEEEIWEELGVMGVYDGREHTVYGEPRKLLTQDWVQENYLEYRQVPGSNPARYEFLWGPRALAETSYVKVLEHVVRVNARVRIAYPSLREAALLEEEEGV
# UniProt Q9BRK4: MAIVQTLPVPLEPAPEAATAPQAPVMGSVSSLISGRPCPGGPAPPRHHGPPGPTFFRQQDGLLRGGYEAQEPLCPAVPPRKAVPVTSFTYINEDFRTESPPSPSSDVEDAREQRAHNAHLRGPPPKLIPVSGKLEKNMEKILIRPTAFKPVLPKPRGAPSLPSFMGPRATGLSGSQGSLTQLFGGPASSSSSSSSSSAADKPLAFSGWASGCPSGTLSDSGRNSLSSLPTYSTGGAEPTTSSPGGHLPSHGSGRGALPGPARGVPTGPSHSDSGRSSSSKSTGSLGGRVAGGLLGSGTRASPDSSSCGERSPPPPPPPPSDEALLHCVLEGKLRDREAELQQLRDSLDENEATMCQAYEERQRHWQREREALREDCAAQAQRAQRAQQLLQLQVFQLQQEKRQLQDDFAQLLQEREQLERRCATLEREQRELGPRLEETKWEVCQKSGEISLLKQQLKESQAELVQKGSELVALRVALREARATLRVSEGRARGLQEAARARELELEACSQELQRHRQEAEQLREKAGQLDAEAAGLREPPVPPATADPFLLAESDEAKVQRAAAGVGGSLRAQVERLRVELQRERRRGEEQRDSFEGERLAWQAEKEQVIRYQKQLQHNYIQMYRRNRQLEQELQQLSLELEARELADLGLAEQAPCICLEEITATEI
# UniProt Q15013: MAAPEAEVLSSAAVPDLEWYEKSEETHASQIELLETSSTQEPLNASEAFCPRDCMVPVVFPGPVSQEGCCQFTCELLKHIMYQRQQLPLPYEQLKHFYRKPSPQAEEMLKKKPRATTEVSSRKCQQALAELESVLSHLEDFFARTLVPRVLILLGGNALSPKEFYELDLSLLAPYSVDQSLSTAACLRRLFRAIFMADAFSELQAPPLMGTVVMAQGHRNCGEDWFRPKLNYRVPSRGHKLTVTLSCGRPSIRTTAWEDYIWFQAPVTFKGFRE
# UniProt O15479: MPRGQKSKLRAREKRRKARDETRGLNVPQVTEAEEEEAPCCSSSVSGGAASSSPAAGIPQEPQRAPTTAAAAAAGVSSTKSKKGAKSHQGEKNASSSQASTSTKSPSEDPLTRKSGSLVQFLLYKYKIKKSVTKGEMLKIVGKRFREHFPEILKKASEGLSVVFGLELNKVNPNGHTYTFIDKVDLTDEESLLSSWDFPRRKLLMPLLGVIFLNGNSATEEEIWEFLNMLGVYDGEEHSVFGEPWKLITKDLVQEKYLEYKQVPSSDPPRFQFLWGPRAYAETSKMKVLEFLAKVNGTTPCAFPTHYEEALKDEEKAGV
# Some of the results follow.
# Legend:
# Assay in all cases: log2 fold change, soluble protein after heating vs DMSO (PISA); higher = thermal stabilisation; K562 lysate, 10 uM; active = over 0.2 and 3.5 SD of the protein, either way, in both replicates (recomputed)
# [1] = compound: NCC(=O)Nc1ccc(-n2nc(C(F)(F)F)cc2-c2ccc3c(ccc4ccccc43)c2)cc1
# How it was run: (§1)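 Soluble protein was defined as the supernatant remaining after 21,000xg for 90 min, following pooling of heated aliquots and adjustment to 0.5% NP-40 at 4°C. Before that, crude K562 extract at 1 mg/mL protein in PBS pH 7.4 with 1 mM MgCl2 was treated with 10 μM compound for 30 min and heated for 3 min across 48°C-58°C. Quantification used TMTpro 16plex LC-MS/MS with channel sums equalised, and values are log-two fold changes in thermal stability relative to solvent controls from duplicates.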
# vorinostat = compound: O=C(CCCCCCC(=O)Nc1ccccc1)NO [vorinostat]
# How it was run: as §1
# silmitasertib = compound: O=C(O)c1ccc2c(c1)nc(Nc1cccc(Cl)c1)c1ccncc12 [silmitasertib]
# How it was run: as §1
# [2] = compound: O=C1NC(=O)C(c2cnc3ccccn23)=C1c1cn2c3c(cc(F)cc13)CN(C(=O)N1CCCCC1)CC2
# How it was run: as §1
# entospletinib = compound: c1cn2cc(-c3ccc4cn[nH]c4c3)nc(Nc3ccc(N4CCOCC4)cc3)c2n1 [entospletinib]
# How it was run: as §1
Target,log2 fold change [1],log2 fold change (vorinostat),log2 fold change (silmitasertib),log2 fold change [2],log2 fold change (entospletinib)
LYAR (UniProt Q9NX58),inactive: 0.011,inactive: 0.109,inactive: 0.005,inactive: 0.001,inactive: 0.014
LTO1 (UniProt Q8WV07),inactive: 0.064,inactive: -0.041,inactive: 0.017,inactive: -0.076,inactive: -0.014
MAGEA9 (UniProt P43362),inactive: 0.028,inactive: 0.058,inactive: 0.002,inactive: 0.021,inactive: 0.015
MAP2K2 (UniProt P36507),inactive: -0.031,inactive: -0.088,inactive: 0.099,inactive: 0.032,inactive: 0.04
MAGEA1 (UniProt P43355),inactive: -0.058,inactive: -0.074,inactive: 0.042,inactive: 0.022,inactive: 0.04
MANF (UniProt P55145),inactive: 0.006,inactive: 0.078,inactive: -0.045,inactive: 0.013,inactive: -0.01
MAP11 (UniProt Q8WVR3),inactive: -0.017,active: -0.488,inactive: -0.015,inactive: 0.056,inactive: -0.131
LUZP1 (UniProt Q86V48),inactive: 0.094,active: -0.248,inactive: 0.129,inactive: 0.022,inactive: -0.03
MAPKAPK5 (UniProt Q8IW41),inactive: -0.012,inactive: 0.07,inactive: 0.002,inactive: 0.052,inactive: 0.028
LTV1 (UniProt Q96GA3),inactive: 0.008,inactive: 0.001,inactive: 0.019,inactive: 0.041,inactive: -0.015
MAP7D3 (UniProt Q8IWC1),inactive: 0.098,inactive: 0.037,inactive: 0.059,inactive: -0.046,inactive: -0.013
MAD2L1 (UniProt Q13257),inactive: -0.006,inactive: 0.024,inactive: 0,inactive: -0.021,inactive: 0.045
LZTR1 (UniProt Q8N653),inactive: -0.022,active: -0.472,inactive: 0.005,inactive: 0.013,inactive: 0.055
MAP4 (UniProt P27816),inactive: 0.017,inactive: 0.092,inactive: -0.023,inactive: 0.016,inactive: 0.005
MARF1 (UniProt Q9Y4F3),inactive: 0.006,active: -0.471,inactive: 0.003,inactive: -0.045,inactive: 0.049
MARK2 (UniProt E9PC69),inactive: 0.026,inactive: -0.167,active: 0.486,inactive: 0.006,inactive: 0.153
MAGEB1 (UniProt P43366),inactive: 0.017,inactive: -0.021,inactive: 0.032,inactive: -0.006,inactive: 0.034
LYN (UniProt P07948),inactive: 0.025,inactive: -0.305,inactive: -0.058,inactive: -0.108,inactive: 0.149
LYPLAL1 (UniProt Q5VWZ2),inactive: 0.032,inactive: -0.057,inactive: -0.012,inactive: 0.013,inactive: 0.007
LYSMD1 (UniProt Q96S90),inactive: 0.029,inactive: 0.072,inactive: -0.026,inactive: -0.007,inactive: 0
MAT2B (UniProt Q9NZL9),inactive: 0.019,inactive: 0.103,inactive: 0.005,inactive: 0.021,inactive: 0.024
MAGOHB (UniProt Q96A72),inactive: 0.013,inactive: -0.034,inactive: -0.006,inactive: 0.047,inactive: 0.03
LUC7L (UniProt Q9NQ29),inactive: 0.003,inactive: 0.136,inactive: -0.126,inactive: -0.016,inactive: -0.019
MAP3K7 (UniProt O43318),inactive: -0.01,inactive: -0.161,inactive: 0.006,inactive: -0.032,inactive: 0.013
MAP2K5 (UniProt Q13163),inactive: -0.111,inactive: -0.293,inactive: -0.123,inactive: 0.023,inactive: 0.065
LZTFL1 (UniProt Q9NQ48),inactive: 0.07,inactive: 0.069,inactive: 0.013,inactive: -0.018,inactive: 0.013
MADD isoform 4 (UniProt Q8WXG6),inactive: 0.019,inactive: -0.192,inactive: -0.011,inactive: 0.003,inactive: 0.039

# Taken from above:
# log2 fold change (vorinostat), MAP4 (UniProt P27816) is entered as inactive: 0.092
# log2 fold change [1], LZTFL1 (UniProt Q9NQ48) is entered as inactive: 0.07
# log2 fold change (silmitasertib), LTO1 (UniProt Q8WV07) is entered as inactive: 0.017

# Following part:

Target,log2 fold change [1],log2 fold change (vorinostat),log2 fold change (silmitasertib),log2 fold change [2],log2 fold change (entospletinib)
MAN1A1 (UniProt P33908),inactive: -0.062,inactive: 0.064,inactive: -0.012,inactive: -0.028,inactive: 0
MAGT1 (UniProt Q9H0U3),inactive: 0.008,inactive: 0.097,inactive: -0.008,inactive: -0.023,inactive: 0.024
MAN2C1 isoform 4 (UniProt Q9NTJ4),inactive: 0.045,inactive: 0.003,inactive: -0.04,inactive: -0.008,inactive: 0.015
MAN2A1 (UniProt Q16706),inactive: -0.03,inactive: 0.121,inactive: -0.017,inactive: -0.009,inactive: 0.042
LTN1 isoform 3 (UniProt O94822),inactive: 0.057,active: -0.58,inactive: 0.04,inactive: 0.028,inactive: 0.034
MAST2 (UniProt Q6P0Q8),inactive: 0.062,inactive: -0.166,inactive: 0.055,inactive: -0.013,inactive: -0.189
MAGEA4 (UniProt P43358),inactive: -0.079,inactive: 0.052,inactive: -0.034,inactive: 0.036,inactive: 0.019
MAPRE3 (UniProt Q9UPY8),inactive: -0.056,inactive: -0.077,inactive: 0.036,inactive: -0.012,inactive: 0.021
LYPLA1 (UniProt O75608),inactive: -0.084,inactive: 0.085,inactive: 0.002,inactive: 0.008,inactive: 0.024
LZTS2 (UniProt Q9BRK4),inactive: 0.163,inactive: -0.055,inactive: 0.041,inactive: 0.048,inactive: -0.064
MAP3K20 (UniProt Q9NYL2),inactive: 0.058,inactive: -0.029,inactive: 0.019,inactive: 0.044,inactive: 0.054
MAPRE1 (UniProt Q15691),inactive: 0.002,inactive: 0.081,inactive: -0.006,inactive: 0.016,inactive: 0.01
MAD2L1BP isoform 3 (UniProt Q15013),inactive: -0.026,active: -0.299,inactive: -0.019,inactive: 0.008,inactive: 0
MAF1 (UniProt Q9H063),inactive: -0.019,inactive: -0.139,inactive: -0.027,inactive: 0.109,inactive: -0.06
MAGEB2 (UniProt O15479),inactive: 0.044,inactive: -0.019,inactive: -0.006,inactive: 0.005,inactive: 0.03
MAPK8IP3 (UniProt Q9UPT6),inactive: -0.041,inactive: 0.06,inactive: 0.026,inactive: -0.044,inactive: 0.011
LYRM7 (UniProt Q5U5X0),inactive: -0.01,inactive: -0.025,inactive: 0.03,inactive: -0.005,inactive: 0.073
LYRM2 (UniProt Q9NU23),inactive: 0.055,inactive: 0.109,inactive: 0.017,inactive: -0.133,inactive: -0.045
MAN2A2 (UniProt P49641),inactive: -0.003,inactive: 0.088,inactive: 0.057,inactive: -0.042,inactive: -0.004
MACF1 isoform 3 (UniProt Q9UPN3),inactive: -0.004,inactive: -0.062,inactive: 0.008,inactive: -0.005,inactive: -0.01
MAPKAPK2 (UniProt P49137),inactive: -0.019,active: -0.36,inactive: 0.072,inactive: -0.014,inactive: 0.04
MACC1 (UniProt Q6ZN28),inactive: -0.006,inactive: -0.118,inactive: 0.002,inactive: -0.017,inactive: 0.054
MAPK9 (UniProt P45984),inactive: -0.008,inactive: -0.129,inactive: 0.037,inactive: -0.004,inactive: 0
MAPK14 (UniProt Q16539),inactive: -0.007,inactive: -0.294,inactive: 0.279,inactive: 0.015,inactive: -0.005
MANBA (UniProt O00462),inactive: -0.044,inactive: 0.089,inactive: -0.011,inactive: -0.015,inactive: -0.025
MAPKAPK3 (UniProt Q16644),inactive: -0.063,active: -0.43,inactive: -0.001,inactive: 0.162,inactive: -0.049
MACROD1 (UniProt Q9BQ69),inactive: 0.11,active: -0.363,inactive: 0.04,inactive: 0.05,inactive: 0.047

# Some entries already given with just log2 fold change (vorinostat), log2 fold change (silmitasertib) and log2 fold change (entospletinib):
Target,log2 fold change (vorinostat),log2 fold change (silmitasertib),log2 fold change (entospletinib)
MAP3K20 (UniProt Q9NYL2),inactive: -0.029,inactive: 0.019,inactive: 0.054
MAPRE1 (UniProt Q15691),inactive: 0.081,inactive: -0.006,inactive: 0.01
